Test [1] has as its target NadA_(24–170) (Neisseria meningitidis strain 2996) (UniProt Q8KH85). Nature of the test: SPR; binding analysis, Biacore 8K; NadA ectodomain, head domain or stalk domain amine-coupled on CM5; Fc-tagged Siglecs injected at 100 nM, 25°C, HSB-EP+ (10 mM HEPES pH 7.4, 0.15 M NaCl, 3 mM EDTA, 0.005% P20); both purified. For orientation: Surface plasmon resonance follows binding to a sensor surface in real time, without labels.

Protein sequences, listed by entry. Tags and fused reporters are not part of them. Lines headed by an entry give the natural chain unless they say otherwise; changes in a name come on top. Residues count along the entry.
UniProt Q8KH85: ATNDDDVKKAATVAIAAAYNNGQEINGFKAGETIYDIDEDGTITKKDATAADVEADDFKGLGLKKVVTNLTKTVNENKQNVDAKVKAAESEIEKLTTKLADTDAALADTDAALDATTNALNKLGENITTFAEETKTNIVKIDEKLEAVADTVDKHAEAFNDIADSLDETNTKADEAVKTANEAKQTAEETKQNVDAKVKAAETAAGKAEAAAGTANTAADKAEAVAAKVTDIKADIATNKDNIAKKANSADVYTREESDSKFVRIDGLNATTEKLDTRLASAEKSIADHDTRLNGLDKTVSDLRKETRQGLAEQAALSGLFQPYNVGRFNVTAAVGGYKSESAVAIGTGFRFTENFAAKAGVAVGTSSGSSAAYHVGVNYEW
recombinant soluble NadA (NadA_(24–350)): residues 1-327 of Q8KH85
NadA_(24–170): residues 1-147 of Q8KH85

The target in test [2] is recombinant soluble NadA (NadA_(24–350)) (Neisseria meningitidis strain 2996) (UniProt Q8KH85). The description is as above.
The target is the same in test [3]. Briefly: HDX-MS; rNadA alone or with Siglec-5 (NadA:Siglec-5 1:3.8), 30 min preincubation; deuterium labelling in PBS at room temperature (15 s-1,000 min) and on ice (4 s-1 min); both purified.

No constants are given. Whether binding was seen depends on the method and setting. Some results given as binding are weak or reduced against the parent protein; the word gives no strength. Tags and fused reporters may be left off the sequences shown.

B1: Fc tagged recombinant human Siglec-14 (Fc fusion, UniProt Q08ET2 17-358)
chain: EKPVYELQVQKSVTVQEGLCVLVPCSFSYPWRSWYSSPPLYVYWFRDGEIPYYAEVVATNNPDRRVKPETQGRFRLLGDVQKKNCSLSIGDARMEDTGSYFFRVERGRDVKYSYQQNKLNLEVTALIEKPDIHFLEPLESGRPTRLSCSLPGSCEAGPPLTFSWTGNALSPLDPETTRSSELTLTPRPEDHGTNLTCQVKRQGAQVTTERTVQLNVSYAPQNLAISIFFRNGTGTALRILSNGMSVPIQEGQSLFLACTVDSNPPASLSWFREGKALNPSQTSMSGTLELPNIGAREGGEFTCRVQHPLGSQHLSFILSVQRSSSSCICVTEKQQGSWPLVL
Take B1: the binding result in test [1] and in test [2] was “binds” throughout.

B2: Fc tagged recombinant human Siglec-5 (Fc fusion, UniProt O15389 17-441)
chain: EKPVYELQVQKSVTVQEGLCVLVPCSFSYPWRSWYSSPPLYVYWFRDGEIPYYAEVVATNNPDRRVKPETQGRFRLLGDVQKKNCSLSIGDARMEDTGSYFFRVERGRDVKYSYQQNKLNLEVTALIEKPDIHFLEPLESGRPTRLSCSLPGSCEAGPPLTFSWTGNALSPLDPETTRSSELTLTPRPEDHGTNLTCQMKRQGAQVTTERTVQLNVSYAPQTITIFRNGIALEILQNTSYLPVLEGQALRLLCDAPSNPPAHLSWFQGSPALNATPISNTGILELRRVRSAEEGGFTCRAQHPLGFLQIFLNLSVYSLPQLLGPSCSWEAEGLHCRCSFRARPAPSLCWRLEEKPLEGNSSQGSFKVNSSSAGPWANSSLILHGGLSSDLKVSCKAWNIYGSQSGSVLLLQGRSNLGTGVVPAAL
In the case of B2, the binding entry in test [3], in test [1] and in test [2] was “binds” each time.
